# The list shows a part of the results. These are further read-outs of the screen, such as a control signal, another cell line or another target. No call is given for them. The list favours compounds with an active or inconclusive main result. Potencies come from curve fits of mixed quality, noted in brackets.
# Assay: qHTS Assay for Lipid Storage Modulators in Drosophila S3 Cells;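 as to cell number change: cells counted by Cell Tracker Red CMTPX staining in the red channel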
# Settings: BODIPY lipid droplet fluorescence, 18-24 h; for cell number change: measured here: cell count max response, cells fed with added oleic acid
# Procedure, shortened: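 Laser-scanning cytometry quantifies lipid droplet accumulation (500–530 nm total intensity; droplet/cell object ratio) in oleic acid-fed (400 uM added) Drosophila S3 cells treated with a concentration series. 20 uM Triacsin C defined 100% inhibition.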
# [1] = measured here: cell number channel AC50, cells fed with added oleic acid
# [2] = measured here: lipid fluorescence (Fed channel) AC50, cells fed with added oleic acid
Compound,cell number change,AC50 [1],AC50 [2]
Cc1nc(CS(=O)(=O)c2ccc(Cl)cc2)sc1C(=O)O,16.8%,"7.31 µM [rising, partial curve, poor fit]",
O=C(c1ccc(Cl)cc1)N(Cc1ccco1)C1CCS(=O)(=O)C1 (configuration not stated),15.3%,,"5.8 µM [falling, full curve]"
CCOc1ccc(NS(=O)(=O)N(C)C)cc1,-14.1%,"0.13 µM [falling, full curve, poor fit]","3.26 µM [falling, partial curve, poor fit]"
O=C(O)C1C2CCC(O2)C1C(=O)NCCC1=CCCCC1 (configuration not stated),-157%,,
N/C(=N\OC(=O)CCCc1ccccc1)c1ccc(Br)cc1,12.3%,,"0.326 µM [rising, full curve, poor fit]"
Cc1ccc(NNC(=O)C(O)(c2cccc(C(F)(F)F)c2)c2cccc(C(F)(F)F)c2)cc1,-78.6%,"16.4 µM [falling, partial curve]","18.4 µM [falling, partial curve]"
Cc1cc(-c2ccc(C(C)C)c(S(=O)(=O)N3CC(=O)Nc4ccccc43)c2)on1,-19.9%,,"6.51 µM [falling, single point]"
CSCC[C@H](NC(=O)Nc1ccc(S(N)(=O)=O)cc1)C(=O)O,-29.8%,"0.0291 µM [falling, full curve, poor fit]","3.26 µM [falling, full curve]"
CCn1c2ccccc2c2cc(NC(=O)c3ccc(Br)o3)ccc21,64.3%,,
CCOC(=O)C1C(c2ccccc2O)NC(=O)NC1(O)C(F)(F)F (configuration not stated),-18.3%,,"29.1 µM [falling, single point]"
COC(=O)c1ccc(NC(=O)c2cccc(N3C(=O)CCC3=O)c2)cc1,8%,,
CC1C(=O)N2CCCc3cc(S(=O)(=O)NCc4ccc(F)cc4)cc1c32 (configuration not stated),,,"1.84 µM [rising, partial curve]"
O=C(COc1ccc(Cl)cc1Cl)NCCCNC(=O)c1cnccn1,11.8%,,
O=C(COC(=O)CCc1ccc(S(=O)(=O)N2CCOCC2)cc1)NC(=O)NC1CCCCC1,-5.74%,,"2.91 µM [falling, single point]"
Cc1onc(-c2ccccc2Cl)c1C(=O)NC(=S)NCCc1ccccc1,-12.6%,"0.116 µM [falling, full curve, poor fit]","29.1 µM [rising, single point]"
CCC(C)NC(=O)C1=CCN(S(=O)(=O)c2ccc(C)cc2)CC1 (configuration not stated),-13.4%,,
Cc1onc(-c2ccccc2Cl)c1C(=O)Nc1ccccc1O,7.14%,,"6.51 µM [falling, single point]"
O=C(COC(=O)/C=C/c1ccc(S(=O)(=O)N2CCc3ccccc32)cc1)NC1CCS(=O)(=O)C1 (configuration not stated),38.2%,,

Compound,cell number change,AC50 [1],AC50 [2]
CC(NC(=O)CNC(=O)c1sc2ccccc2c1Cl)c1cccnc1 (configuration not stated),-19%,,"5.8 µM [falling, full curve]"
CCC(C)n1c(S(=O)(=O)O)nc2ccccc21 (configuration not stated),-41.4%,"0.651 µM [falling, partial curve, poor fit]","1.46 µM [falling, full curve]"
Cc1noc(C)c1CSCC(=O)OCC(=O)Nc1sccc1C#N,,"0.103 µM [falling, full curve, poor fit]","1.84 µM [falling, partial curve]"
CCOc1cc(/C=N/NC(=O)c2ccncc2)ccc1OC(=O)c1ccc([N+](=O)[O-])cc1,-40.2%,"25.9 µM [falling, partial curve, poor fit]",
CC(=O)Nc1ccc2c(COC(=O)CC3Sc4ccccc4NC3=O)cc(=O)oc2c1 (configuration not stated),105%,"18.4 µM [rising, single point]",
Oc1ccc(/C=N/n2cc(-c3ccccc3)[nH]c2=S)cc1,34.9%,"29.1 µM [rising, single point]","29.1 µM [rising, single point]"
COc1ccc(C(=O)NNC(=O)C2CCCN(C3CC(=O)N(c4ccccc4)C3=O)C2)cc1 (configuration not stated),32.1%,"23.1 µM [rising, single point]",
Cn1c(=O)c2c(nc(Sc3nc4ccccc4n3CC(=O)N3CCCCC3)n2C)n(C)c1=O,,"0.13 µM [rising, single point]","0.58 µM [rising, partial curve]"
CCCCc1c(C)[nH]c(C(=O)OCC)c1C,-48.8%,,
C#CCOCCOCCOCCNc1nc(N2CCN(C(=O)C([C@@H](C)CC)n3cc(C(N)CO)nn3)CC2)nc(N2CCN(C(=O)[C@H](CCC(=O)O)n3cc(C(N)Cc4ccc(O)cc4)nn3)CC2)n1 (some centres not stated),-36.6%,"2.31 µM [falling, full curve]","29.1 µM [falling, single point]"
COc1ccccc1CNC(=O)CSCc1cnn(-c2ccccc2)c1-n1cccc1,75.9%,"2.59 µM [rising, full curve]","5.17 µM [rising, full curve]"
C/C(=N\NC(=O)c1ccncc1)c1cc2ccccc2oc1=O,-21.7%,,
CC1C(=O)CC(c2ccccc2)NC1c1ccccc1 (configuration not stated),,"5.8 µM [rising, single point]",
CCCn1c(C)nc2c(c1=O)c1nc3ccccc3nc1n2CCC1=CCCCC1,-3.75%,,"6.51 µM [rising, partial curve]"
CC(C)c1ccc(OCC(=O)Nc2cccc3c2CCCC3)cc1,-31.6%,"5.17 µM [falling, full curve, poor fit]","8.2 µM [falling, partial curve]"
O=C(N/N=C/c1ccc(F)cc1)c1sccc1OCc1ccc(F)cc1,-8.25%,,"0.651 µM [falling, full curve, poor fit]"
O=C(NCC(=O)N1CCN(c2ncccn2)CC1)c1cccs1,-60.6%,"4.61 µM [falling, partial curve]","6.51 µM [falling, single point]"
COc1ccc(-c2cc(C(=O)NC(C)c3ccccn3)c3ccccc3n2)cc1OC (configuration not stated),6.43%,,"2.91 µM [rising, partial curve]"

# Part of the list above, reduced to cell number change.
Compound,cell number change
CCOc1cc(/C=N/NC(=O)c2ccncc2)ccc1OC(=O)c1ccc([N+](=O)[O-])cc1,-40.2%
CC(=O)Nc1ccc2c(COC(=O)CC3Sc4ccccc4NC3=O)cc(=O)oc2c1 (configuration not stated),105%
